# Experimental data published in patent publication US20240239771A1, “BACTERIAL EFFLUX PUMP INHIBITORS” (priority 2020, published 2024).
# Structures can show the parent of a compound that is named as a salt. The name of at least one read-out is uncertain.
# Test system: Pseudomonas aeruginosa ATCC 27853
# Test: Standard EPI assay: MIC of test antibiotic in absence and presence of EPI
# Format: cell-based
# Details: ceftazidime with compound at 6.25 μg/mL, relative to MIC without EPI (2 μg/mL)
# Description: The EPI assay for the purposes of these studies represents a MIC assay in which the MIC of the antibiotic against the bacteria is tested in the presence of an experimental efflux pump inhibitor (EPI). The highest concentration of the EPI present in the assay typically is ½ of the intrinsic MIC of the compound. If the intrinsic MIC of the EPI is greater than 100 μg/mL, the EPI assay was tested with 50 μg/mL. Using serial dilutions of the EPI, its enhancement of antibiotic activity was then evaluated. The relative EPI activity was decided by comparing the MIC of the antibiotic in the presence of the EPI compound with the intrinsic MIC of the antibiotic alone.
# The impact of the EPIs on the MIC values of three test antibiotics (levofloxacin, ceftazidime and doxycycline) against P. aeruginosa ATCC 27853 were evaluated using our standard EPI assay. All three antibiotics levofloxacin, ceftazidime and doxycycline are known substrates of efflux pumps in P. aeruginosa, and are thus well-suited to be test antibiotics to assay for EPI activity.
# In our standard EPI assay, the MIC of the test antibiotic is determined in the absence and presence of sub-inhibitory concentrations of the EPI. […] The MIC of levofloxacin against P. aeruginosa ATCC 27853 in the absence of EPI is 1 μg/mL. […] For all the examples in Table 1, the potentiation activities are determined at 6.25 μg/mL.
smiles,measurement,value
"NCCC(O)[C@@H](N)CNC(=O)c1[nH]c2ccccc2c1-c1ccccc1 (stereo partly drawn) [Example 2, N-((2S)-2,5-diamino-3-hydroxypentyl)-3-phenyl-1H-indole-2-carboxamide hydrogen chloride salt]","Enhanced Antibiotic's Activity (fold increase), Ceftazidime",2 fold
